Laboratory results taken from the supplement of paper PMC12067093, “Discovery and optimisation of a covalent ligand for TRIM25 and its application to targeted protein ubiquitination” (Chemical Science, 2025).
The list shows a part of the results.

Compound: CC1Cc2ccccc2N1C(=O)C1CCCN(C1)C(=O)CCl (mixture of isomers) [TRIM25 ligand 11 (diastereomer mixture)]
Test: probe-labelled cysteine peptide fold change vs DMSO (competition) (log2 fold change); higher = less target engagement (more negative = stronger competition)
Settings: THP-1, incubation time: 4 h
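Note: competitive chemoproteomic profiling in live THP-1 cells with an iodoacetamide desthiobiotin (IA-DTB) probe, comparing probe-labelled peptide intensities in compound-treated cells against DMSO-treated controls.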

Target | probe-labelled cysteine peptide fold change (10 µM) | probe-labelled cysteine peptide fold change (50 µM)
CKAP5_Q14008_637_AVELMDRTEMPCQALVR (UniProt Q14008) | -0.202 | -0.231
CHTF18_Q8WVB6_825_LEPNVEELCR (UniProt Q8WVB6) | 0.0127 | -0.293
CIAO1_O76071_245_CICTLSGFHSR (UniProt O76071) | 0.0372 | -0.0452
CLASP2_O75122_157_EACITVAHLSTVLGNK (UniProt O75122) | 0.303 | 0.0759
CLTC_Q00610_824_LPVVIGGLLDVDCSEDVIK (UniProt Q00610) | -0.0769 | 0.0896
CHD1_O14646_497_DYQLNGLNWLAHSWCK (UniProt O14646) | 0.0432 | 0.129
CIAPIN1_Q6FI81_274_SACGNCYLGDAFR (UniProt Q6FI81) | -0.229 | -0.252
CLIC1_O00299_178_KFLDGNELTLADCNLLPK (UniProt O00299) | -0.123 | 0.000904
CLTC_Q00610_436_FQSVPAQPGQTSPLLQYFGILLDQGQLNKYESLELCRPVLQQGR (UniProt Q00610) | -0.348 | -0.341
CHI3L1_P36222_26_LVCYYTSWSQYR (UniProt P36222) | 0.222 | 0.24
CLTC_Q00610_666_RAVVHTHLLNPEWLVNYFGSLSVEDSLECLR (UniProt Q00610) | -0.162 | 0.251
CLIC1_O00299_178_FLDGNELTLADCNLLPK (UniProt O00299) | -0.0126 | 0.041
CFL2_Q9Y281_80_LLPLNDCR (UniProt Q9Y281) | -0.033 | 0.153
CLASP1_Q7Z460_173_IVPHICNLLGDPNSQVR (UniProt Q7Z460) | -0.0937 | 0.0418
CLIC4_Q9Y696_35_AGSDGESIGNCPFSQR (UniProt Q9Y696) | -0.118 | 0.11
CHORDC1_Q9UHD1_5_ALLCYNR (UniProt Q9UHD1) | -0.0447 | 0.458
CHCHD5_Q9BSY4_44_MSIAQCTSSHPIIR (UniProt Q9BSY4) | 0.028 | -0.2
CLASP1_Q7Z460_864_QTEDVAEVLNHCASSNWSER (UniProt Q7Z460) | 0.0946 | 0.379
CHUK_O15111_30_LGTGGFGNVCLYQHR (UniProt O15111) | -0.101 | 0.0455
CLTC_Q00610_151_HSSLAGCQIINYR (UniProt Q00610) | 0.274 | -0.00881
CIC_Q96RK0_1506_VCLQLK (UniProt Q96RK0) | -0.246 | -0.186

Target | probe-labelled cysteine peptide fold change (10 µM) | probe-labelled cysteine peptide fold change (50 µM)
CHST14_Q8NCH0_117_AVCGQPGMPR (UniProt Q8NCH0) | 0.169 | 0.162
CHORDC1_Q9UHD1_211_KTSDFNTFLAQEGCTK (UniProt Q9UHD1) | 0.0224 | -0.115
CHD9_Q3L8U1_1257_FSKPDSDRFVFLLCTR (UniProt Q3L8U1) | -0.175 | -0.0129
CLTC_Q00610_1528_QSVELCK (UniProt Q00610) | 0.0372 | 0.0186
CHPF_Q8IZ52_243_YCHGGFGVLLSR (UniProt Q8IZ52) | -0.105 | 0.0727
CHD4_Q14839_1827_FAEVECLAESHQHLSK (UniProt Q14839) | 0.119 | -0.223
CLP1_Q92989_311_GCFYPHAFNVK (UniProt Q92989) | 0.139 | 0.0546
CLPX_O76031_538_CELNVTEDALK (UniProt O76031) | -0.26 | 0.0284
CKAP5_Q14008_1019+1026_STPTDLILCVPHLYSCLEDR (UniProt Q14008) | 0.47 | 0.0623
CLTCL1_P53675_459_LECSEELGDLVK (UniProt P53675) | 0.213 | 0.12
CIAO2A_Q9H5X1_155_EIVEQCVLEPD (UniProt Q9H5X1) | -0.218 | 0.0683
CLTC_Q00610_1102_CNEPAVWSQLAK (UniProt Q00610) | 0.0548 | -0.00398
CHAMP1_Q96JM3_16_LECDHCSFR (UniProt Q96JM3) | 0.26 | 0.118
CHAF1A_Q13111_878_SAGSMCITQFMK (UniProt Q13111) | -0.128 | -0.316
CHM_P24386_444_IISEHFLVEDSYFPENMCSR (UniProt P24386) | 0.346 | -0.162
CKAP5_Q14008_592_EIVEPELSIEVCEEK (UniProt Q14008) | 0.00603 | -0.152
CHM_P24386_364_NFLHCLGR (UniProt P24386) | -0.0139 | 0.291
CHD8_Q9HCK8_1947_HGVSQTDCNIMQDPDFSFLAAR (UniProt Q9HCK8) | -0.147 | -0.198
CIAPIN1_Q6FI81_249+251_NCTCGLAEELEK (UniProt Q6FI81) | -0.0666 | -0.108
CLIP2_Q9UDT6_525_RGEIEELQQCLLHSGPPPPDHPDAAEILR (UniProt Q9UDT6) | -0.0137 | 0.285
CLIC4_Q9Y696_189_FLDGNEMTLADCNLLPK (UniProt Q9Y696) | 0.121 | -0.00677

Target | probe-labelled cysteine peptide fold change (10 µM) | probe-labelled cysteine peptide fold change (50 µM)
CLPB_Q9H078_267_GCTALHYAVLADDYR (UniProt Q9H078) | 0.333 | 0.3
CIT_O14578_1019_TTCTMLEEQVMDLEALNDELLEK (UniProt O14578) | -0.0394 | 0.0183
CHAF1A_Q13111_79_SPDLEASLDTLENNCHVGSDIDFRPK (UniProt Q13111) | 0.0541 | -0.182
CKAP5_Q14008_1795_NESELEAHLCR (UniProt Q14008) | 0.0496 | 0.0689
CFAP36_Q96G28_138_NGVLPDCLTDGSDVVSDLEHEEMK (UniProt Q96G28) | -0.107 | -0.313
CLIC1_O00299_223_EEFASTCPDDEEIELAYEQVAK (UniProt O00299) | 0.0322 | -0.023
CLSTN1_O94985_261_ISIKPTCTPGWQGWNNR (UniProt O94985) | 0.139 | 0.163
CHD4_Q14839_493_CTCPALK (UniProt Q14839) | 0.0193 | 0.209
CHML_P26374_366_NFLQCLGR (UniProt P26374) | -0.0875 | 0.247
CLTC_Q00610_666_AVVHTHLLNPEWLVNYFGSLSVEDSLECLR (UniProt Q00610) | 0.248 | 0.283
CLASP1_Q7Z460_1423_AAEEAASTLASSIHPEQCIK (UniProt Q7Z460) | 0.171 | -0.00926
CHORDC1_Q9UHD1_86_ELCELKPK (UniProt Q9UHD1) | -0.0689 | -0.154
CHAMP1_Q96JM3_787_HLTHCQSR (UniProt Q96JM3) | 0.0933 | -0.309
CLPX_O76031_586_LLLEPMFEVPNSDIVCVEVDK (UniProt O76031) | 0.0987 | -0.101
CFL1_P23528_39_AVLFCLSEDKK (UniProt P23528) | -0.132 | -0.146
CHKB_Q9Y259_85_CSLPDHLPSVGEEPR (UniProt Q9Y259) | 0.241 | 0.244
CLTCL1_P53675_617_AHIAQLCEK (UniProt P53675) | 0.0881 | 0.0448
CHCHD3_Q9NX63_204+214_CSALATQYMHCVNHAK (UniProt Q9NX63) | -0.0243 | 0.119
CHORDC1_Q9UHD1_86_ELCELK (UniProt Q9UHD1) | 0.154 | 0.206
CHML_P26374_103_KKDETIQHTEAFCYASQDMEDNVEEIGALQK (UniProt P26374) | -0.0959 | -0.551
CHTF8_P0CG13_83_HTPGDQDCDELGR (UniProt P0CG13) | 0.377 | 0.229

Record cards, from the list above.
CLASP1_Q7Z460_1423_AAEEAASTLASSIHPEQCIK (UniProt Q7Z460) as listed: probe-labelled cysteine peptide fold change (10 µM) = 0.171; probe-labelled cysteine peptide fold change (50 µM) = -0.00926
CIC_Q96RK0_1506_VCLQLK (UniProt Q96RK0) as listed: probe-labelled cysteine peptide fold change (10 µM) = -0.246; probe-labelled cysteine peptide fold change (50 µM) = -0.186
CFL2_Q9Y281_80_LLPLNDCR (UniProt Q9Y281) as listed: probe-labelled cysteine peptide fold change (10 µM) = -0.033; probe-labelled cysteine peptide fold change (50 µM) = 0.153
CHUK_O15111_30_LGTGGFGNVCLYQHR (UniProt O15111) as listed: probe-labelled cysteine peptide fold change (10 µM) = -0.101; probe-labelled cysteine peptide fold change (50 µM) = 0.0455

Additional entries

Target | probe-labelled cysteine peptide fold change (10 µM) | probe-labelled cysteine peptide fold change (50 µM)
CIAPIN1_Q6FI81_237_AASCGEGK (UniProt Q6FI81) | -0.137 | -0.228
CFAP298_P57076_45_LCSEMEELAEHGIFLPPNMQGLTDDQIEELK (UniProt P57076) | 0.113 | -0.478
CHURC1_Q8WUH1_91_NCHHVIAR (UniProt Q8WUH1) | 0.0607 | 0.145
CLK3_P49761_294_EGHLVCR (UniProt P49761) | 0.303 | 0.267
CHURC1_Q8WUH1_88_EEDGEEIVTYDHLCK (UniProt Q8WUH1) | 0.0606 | 0.249
CHMP5_Q9NZZ3_20_APPPSLTDCIGTVDSR (UniProt Q9NZZ3) | -0.0842 | -0.129
CLIP1_P30622_111_YFQCEPLK (UniProt P30622) | -0.0948 | -0.00738
CKAP2_Q8WWK9_674_ETDAFVCRPNAALCR (UniProt Q8WWK9) | -0.139 | -0.0785
CGAS_Q8N884_199_CDSAFR (UniProt Q8N884) | -0.0504 | 0.067
CLTC_Q00610_217_MEGNAEESTLFCFAVR (UniProt Q00610) | 0.0197 | 0.0801
CIT_O14578_105_SLVGCGHFAEVQVVR (UniProt O14578) | -0.109 | 0.0477
CLPB_Q9H078_572_INEIVYFLPFCHSELIQLVNK (UniProt Q9H078) | 0.00906 | 0.06
CLP1_Q92989_338_VGAPTIPDSCLPLGMSQEDNQLK (UniProt Q92989) | 0.0732 | 0.206
CINP_Q9BW66_92_LCEELQATLDGLTK (UniProt Q9BW66) | 0.245 | 0.246
CLIC4_Q9Y696_189_KFLDGNEMTLADCNLLPK (UniProt Q9Y696) | -0.146 | -0.327
CHD1L_Q86WJ1_156_FHVLLTTYEICLK (UniProt Q86WJ1) | 0.033 | 0.177
CHML_P26374_390_FGNTPFLFPLYGQGEIPQGFCR (UniProt P26374) | -0.369 | 0.227
CHERP_Q8IWX8_69_LALEQQQLICK (UniProt Q8IWX8) | 0.0811 | 0.00437
